This is an account of results in patent US20210214454A1.

The chains behind the UniProt entries cited, without tags or fusion partners. Where a name states a change or a piece, a line headed by the entry shows the natural chain unless it says otherwise. A line that says so, or that is headed by a name, gives the form on record, which may keep a tag or linker.
cynomolgus CD40 protein expressed on CHO-S cells (G7PG38, form named): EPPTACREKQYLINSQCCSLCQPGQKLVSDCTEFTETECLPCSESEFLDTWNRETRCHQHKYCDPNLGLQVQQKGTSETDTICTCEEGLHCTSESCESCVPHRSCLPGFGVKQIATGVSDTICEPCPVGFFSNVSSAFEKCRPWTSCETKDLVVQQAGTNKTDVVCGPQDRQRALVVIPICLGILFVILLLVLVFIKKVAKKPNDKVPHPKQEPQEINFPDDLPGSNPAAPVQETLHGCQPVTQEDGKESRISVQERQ

Test [1] deals with cynomolgus CD40 protein expressed on CHO-S cells (cynomolgus) (UniProt G7PG38). Nature of the test: flow cytometry on CHO-S cells transiently expressing cynomolgus CD40; AF647 anti-human IgG (H+L) secondary; GeoMean RL1-H. For orientation: In flow cytometry, cells or beads pass a laser one at a time.
The target is the same in test [2]. Description: flow cytometry on CHO-S cells transiently expressing CD40.

These are yes or no findings as the source states them, for the method shown. Some results given as binding are weak or reduced against the parent protein; the word gives no strength.

B1: antibody 15833 (antibody, human IgG1, kappa, L234A L235A, V domains shown)
VH: QVQLVESGGGVVQPGRSLRLSCAASGFTFSNYAMHWVRQAPGKGLEWVALISFDGSYKYYADSVKGRFTISRDNSKNTLYLQMNSLRAEDTAVYYCVKDAGYSSSWFFDYWGQGTLVTVSS
VL: DIQMTQSPSSVSASVGDRVTITCRASQDISSWLAWYQQKPGKAPKLLIYAASSLQSGVPSRFSGSGSGTDFTLTISSLQPEDFGNYYCQQANSFPWTFGQGTKVEIKR
As for B1, the binding entry in test [1] and in test [2] was “binds” in each case.

B2: antibody 16154 (antibody, human IgG1, kappa, L234A L235A, V domains shown)
VH: EVQLVESGGGLVQPGGSLRLSCAASGFTFTSYWMSWVRQAPGKGLEWVANIKQDGSEKYYVDSVKGRFTISRDNAKNSLYLQMNSLRAEDTAVYYCARGPVAGPYWYFDLWGRGTLVTVSS
VL: AIQMTQSPSSLSASVGDRVTITCRASQGIRNDLGWYQQKPGKAPKLLIYAASSLQSGVPSRFSGSGSGTDFTLTISSLQPEDFATYYCLQDYHYPLTFGGGTKVEIKR
In the case of B2, the binding result in test [1] and in test [2] was “binds” throughout.
